# According to PubChem BioAssay AID504467 (National Center for Advancing Translational Sciences (NCATS), 2011):
# About 7,700 (2.3%) of roughly 330,000 compounds were called active. Inconclusive means that the source gave no clear call. Such entries were picked first, then a sample of the others. Calls follow the shape of the dose curve; as a rule, active = well fitted inhibition curve with a large enough effect; inconclusive = small, poorly fitted or top-dose-only effect, or effect the other way; inactive = flat fitted curve, though single readings scatter. A potency beside an inconclusive call is a rough fit, not a confirmed value.
# Assay: qHTS screen for small molecules that inhibit ELG1-dependent DNA repair in human embryonic kidney (HEK293T) cells expressing luciferase-tagged ELG1; also: nearly all actives have a fitted effect of over 55% in size
# Details: HEK293T ELG1-luciferase reporter, luminescence, 16 h, DNA damage induced by 5-fluorouridine; series mostly up to 46.1 µM
# Procedure, shortened: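 HEK293T cells expressing luciferase-tagged ELG1 (2,000/well) received 5-Fluorouridine plus compound or DMSO for 16 hr at 37 °C. Luciferase was read by ONE-Glo luminescence after 30 min at room temperature.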
# Potency is read from the fitted curve at half-maximal effect.
row,Compound,Potency
1,Cc1ccc(-c2nnc(N3CCOCC3)c3ccccc23)cc1S(=O)(=O)NCc1cccnc1,"inconclusive: 23.1 µM [inhibitor, partial curve]"
2,CSc1ccccc1OCc1cc(C(=O)N2CCN(c3ccccc3)CC2C)no1 (centres undefined),"inconclusive: 11.6 µM [activator, partial curve]"
3,COc1ccc(C2=NN(C(=O)c3cccs3)C(c3ccccc3O)C2)cc1 (centres undefined),"inconclusive: 29.1 µM [inhibitor, single point]"
4,Cc1cc(C)c(NC(=O)CSc2nc(COc3ccccc3)nc3ccccc23)c(C)c1,"inconclusive: 20.6 µM [activator, partial curve]"
5,N#C/C(=C\c1ccc(F)c(Br)c1)C(=O)NC1CC1,"inconclusive: 11.6 µM [activator, partial curve]"
6,CCn1c(=O)n(CC)c2cc(S(=O)(=O)N3CCC(c4ccccc4)CC3)ccc21,"inconclusive: 16.4 µM [inhibitor, partial curve]"
7,CCOC(=O)c1cc(-c2ccc3c(c2)OCCO3)n[nH]1,"inconclusive: 9.2 µM [activator, partial curve]"
8,O=C(NCc1cccc(Cl)c1)c1cnn2c1NC(c1ccco1)CC2C(F)(F)F (centres undefined),"inconclusive: 18.4 µM [inhibitor, single point]"
9,CCN(Cc1ccccc1)S(=O)(=O)c1ccc(OC)c2ncccc12,"inconclusive: 20.6 µM [inhibitor, partial curve]"
10,O=C(NCc1ccco1)C12CN(Cc3ccccc3)CC1C(c1ccc([N+](=O)[O-])cc1)=NO2 (centres undefined),inactive
11,Cc1ccc(C(=O)N/C(=C\c2ccco2)C(=O)NC2CCS(=O)(=O)C2)cc1 (centres undefined),"inconclusive: 20.6 µM [activator, partial curve]"
12,Cc1cccc(C(=O)N[C@H](C(=O)Nc2ccc(C)c(S(=O)(=O)N(C)C)c2)C(C)C)c1,"inconclusive: 18.3 µM [inhibitor, single point]"
13,COc1ccc2[nH]c3c(c2c1)CC(C)NC3=O (centres undefined),"inconclusive: 0.631 µM [inhibitor, full curve]"
14,COc1ccc(C2=NS(=O)(=O)N(C)C(C(=O)NCc3ccccc3)=C2)cc1OC,"inconclusive: 25.9 µM [inhibitor, single point]"
15,CC(C)C(c1nnnn1Cc1cccs1)N1CCN(C(=O)c2ccco2)CC1 (centres undefined),active: 6.51 µM
16,O=C(Nc1ccccc1)c1ccccc1NC(=O)C(F)(F)F,"inconclusive: 18.4 µM [activator, single point]"
17,N#Cc1ccc(N=c2ssnc2Cl)cc1,"inconclusive: 22.4 µM [inhibitor, single point]"
18,C=CCNC(=O)NC(=O)COn1nnc2ccc(S(=O)(=O)N(C)C)cc21,"inconclusive: 20.6 µM [activator, single point]"
19,CCCn1nnc(NC(=O)c2ccc(-c3cc(Cl)ccc3Cl)o2)n1,inactive
20,Cc1ccc(NC(=S)N(Cc2ccccc2)C(C)C)cc1,inactive
21,CCCCNC(=S)Nc1cccc2cnccc12,"inconclusive: 13 µM [inhibitor, partial curve, poor fit]"
22,Fc1ccc(-n2c(-c3ccco3)n[nH]c2=S)cc1,inactive
23,Cc1cc(Cl)ccc1Oc1nccc(N(C)C)c1C#N,inactive

# 4 entries from above, as tab-separated lines.
row	Compound	Potency
2	CSc1ccccc1OCc1cc(C(=O)N2CCN(c3ccccc3)CC2C)no1 (centres undefined)	inconclusive: 11.6 µM [activator, partial curve]
3	COc1ccc(C2=NN(C(=O)c3cccs3)C(c3ccccc3O)C2)cc1 (centres undefined)	inconclusive: 29.1 µM [inhibitor, single point]
4	Cc1cc(C)c(NC(=O)CSc2nc(COc3ccccc3)nc3ccccc23)c(C)c1	inconclusive: 20.6 µM [activator, partial curve]
5	N#C/C(=C\c1ccc(F)c(Br)c1)C(=O)NC1CC1	inconclusive: 11.6 µM [activator, partial curve]

# Next part

row,Compound,Potency
1,COc1cc(C2CC(=O)Oc3ccc(C(C)(C)C)cc32)cc(OC)c1OC (centres undefined),"inconclusive: 29.1 µM [activator, partial curve, poor fit]"
2,O=C(COC(=O)Cn1nnc(-c2ccccc2)n1)Nc1cc(F)ccc1F,"inconclusive: 20.6 µM [activator, partial curve, poor fit]"
3,CCOC(=O)CSC1=C(C#N)C(c2sccc2C)CC(=O)N1 (centres undefined),"inconclusive: 1.16 µM [inhibitor, single point]"
4,CC(=O)Nc1ccc2nc(C)n(Cc3ccc(Cl)cc3)c(=O)c2c1,"inconclusive: 3.66 µM [activator, full curve]"
5,CC(C)OC(=O)C(=O)NNc1ccccc1,"inconclusive: 8.2 µM [activator, partial curve, poor fit]"
6,N#C/C(=C/c1ccc(F)cc1)S(=O)(=O)c1ccccc1,"inconclusive: 6.51 µM [inhibitor, single point]"
7,CN(CCOC(=O)c1ccc2c(c1)OCCO2)C(C)(C)C,"inconclusive: 13 µM [activator, partial curve, poor fit]"
8,CS(=O)(=O)c1ccc(C(=O)OCC(=O)Nc2cccc(S(=O)(=O)N3CCCC3)c2)cc1,inactive
9,c1ccc(-c2csc(N3CCCCCC3)n2)cc1,"inconclusive: 14.6 µM [activator, partial curve]"
10,COc1ccc(C(=O)OCc2c(F)cccc2Cl)cc1S(=O)(=O)N1CCOCC1,"inconclusive: 32.6 µM [inhibitor, single point]"
11,C/C(=N\N(C)C)C1=C(O)c2ccccc2C1=O,"inconclusive: 13 µM [activator, partial curve]"
12,Cc1ccc(C)c(-n2c(-c3csc(C)c3C)n[nH]c2=S)c1,inactive
13,CC(=O)CSc1ncnc2c1oc1ccccc12,"inconclusive: 14.6 µM [activator, partial curve]"
14,Cc1ccccc1OCC(=O)N/N=C1\CCOc2c(C)cccc21,"inconclusive: 11.6 µM [activator, partial curve]"
15,CN(Cc1nccn1C)C(=O)C1CCC(=O)N(CCc2ccc(Cl)cc2)C1 (centres undefined),inactive
16,COc1cc(/C=N/n2c(C)nc3ccccc3c2=O)cc(OC)c1O,inactive
17,O=C(NCc1ccccc1Cl)NCc1ccccc1Cl,"inconclusive: 7.3 µM [activator, partial curve, poor fit]"
18,COCCCNc1nc2ccccc2nc1NS(=O)(=O)c1ccc(C)cc1C,"inconclusive: 23.1 µM [inhibitor, partial curve]"
19,O=C(CSCC(=O)N1CCCCC1)Nc1nc(-c2ccccc2)c(-c2ccccc2)s1,inactive
20,Cc1ccc(/C=N/NC(=O)c2nnn(-c3nonc3N)c2CSc2ccccc2)o1,inactive
21,COc1ccc(/C=N/N(C)C2=NS(=O)(=O)c3ccccc32)cc1,inactive
22,Cc1cc(Cl)ccc1OC(C)C(=O)NCCCn1ccnc1 (centres undefined),inactive
23,COc1ccc2cc(-c3ccccc3)ncc2c1,"inconclusive: 1.78 µM [activator, partial curve, poor fit]"

row,Compound,Potency
1,CCN(C(=O)CN1C(=O)NC2(CCc3ccccc32)C1=O)C1CCCCC1 (centres undefined),inactive
2,COc1cc(/C=C2\CCC/C(=C\c3ccc(O)c(OC)c3)C2=O)ccc1O,"inconclusive: 18.3 µM [inhibitor, single point]"
3,Cn1nc(C(C)(C)C)cc1C(=O)NNC(=O)c1ccc(C(F)(F)F)cc1,active: 7.3 µM
4,O=C(CSc1ncccc1-c1nc2ccccc2[nH]1)N1CCc2ccccc21,"inconclusive: 8.2 µM [activator, partial curve]"
5,N#CC(C#N)=C(Nc1ccc(F)cc1)SCc1cccc(F)c1,"inconclusive: 2.59 µM [inhibitor, partial curve]"
6,CCOC(=O)CNC(=O)Cc1ccc(OC)cc1,"inconclusive: 1.16 µM [inhibitor, single point]"
7,O=C(Nc1cccc(S(=O)(=O)NC2=NCCC2)c1)C1CCCCC1,"inconclusive: 29.1 µM [inhibitor, single point]"
8,O=C(CCl)N1CCCC1c1ccc2c(c1)OCCO2 (centres undefined),"inconclusive: 16.4 µM [inhibitor, partial curve, poor fit]"
9,O=C(CSc1ccccc1F)NCC(c1cccs1)N1CCOCC1 (centres undefined),inactive
10,COc1ccccc1C(=O)Nc1ccnn1C1CCN(C(=O)c2ccoc2C)CC1,inactive
11,COc1ccc(CCNC(=O)CSc2nc(N)c(C#N)c(-c3cccs3)c2C#N)cc1OC,"inconclusive: 20.6 µM [inhibitor, single point]"
12,CC(=O)NNC(=S)NC(=O)c1cccc([N+](=O)[O-])c1,inactive
13,Cn1ccnc1SCC(=O)Nc1ccc(Cl)cn1,"inconclusive: 23.1 µM [activator, single point]"
14,CCN(CC(=O)Nc1ccc2c(c1)OCCO2)Cc1cc(=O)oc2c(C)c(C)ccc12,"inconclusive: 20.6 µM [inhibitor, single point]"
15,Cc1c(N/C(=N/S(=O)(=O)c2ccc(Cl)cc2)c2ccccc2)c(=O)n(-c2ccccc2)n1C,inactive
16,Cc1ccccc1NC(=O)c1csc2c1CCCC2,"inconclusive: 20.6 µM [activator, partial curve]"
17,CC(=O)C1=C(C)NC(SCC(=O)c2ccc(Cl)c(Cl)c2)=C(C#N)C1c1ccco1 (centres undefined),"inconclusive: 29.1 µM [inhibitor, single point]"
18,OC(C#CCCN1CCCCC1)(c1ccccc1)c1ccccc1,"inconclusive: 4.11 µM [activator, partial curve, poor fit]"
19,CCOc1ccc(S(=O)(=O)N2CCN(C(=O)c3cc4c(s3)CCCC4)CC2)cc1,"inconclusive: 23.1 µM [inhibitor, partial curve, poor fit]"
20,Cn1cc([N+](=O)[O-])c(C(=O)Nc2ccc(C(=O)N3CCCCC3)cc2)n1,inactive
21,Cc1ccc(C)c(S(=O)(=O)N2CCN(C(=O)c3ccc4ccccc4n3)CC2)c1,"inconclusive: 29.1 µM [inhibitor, partial curve, poor fit]"
22,Cc1cc(C)c2c(c1)-c1c(ssc1=S)C(C)(C)N2C(=O)CN1C(=O)c2ccccc2C1=O,"inconclusive: 32.6 µM [inhibitor, partial curve, poor fit]"
23,COc1ccc(NC(=O)CSc2nc(N)c3cc4c(nc3n2)CCCC4)c(OC)c1,"inconclusive: 25.9 µM [activator, single point]"
